Reference: article PMC12900701
No constants are given. Whether binding was seen depends on the method and setting. For some assays here: Binding seen in cells or lysates may run through a third protein. Some entries that bind do so weakly or less than the wild type. For some assays here: Tags and fused reporters may be left off the sequences shown. One block for each binder: values may come before it.

Chains of the proteins cited; added tags and fusions are not shown.
UniProt P62068: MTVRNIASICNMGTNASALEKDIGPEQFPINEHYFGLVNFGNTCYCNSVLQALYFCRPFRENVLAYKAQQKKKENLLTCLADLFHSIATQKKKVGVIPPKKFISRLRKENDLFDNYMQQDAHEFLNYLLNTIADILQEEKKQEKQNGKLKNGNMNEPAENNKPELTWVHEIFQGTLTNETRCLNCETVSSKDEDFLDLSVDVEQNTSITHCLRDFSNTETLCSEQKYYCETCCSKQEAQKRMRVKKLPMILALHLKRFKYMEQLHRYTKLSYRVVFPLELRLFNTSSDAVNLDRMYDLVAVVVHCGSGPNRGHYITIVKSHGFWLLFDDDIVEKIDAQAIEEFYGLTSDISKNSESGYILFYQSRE

Tests used:
[1] = molecular target: USP46 (USP46 FLAG group) (human) (UniProt P62068); assay: co-IP; IP of USP46 from cell lysate with anti-USP46 antibody and Protein A/G magnetic beads, 4°C, 6 h; IP buffer 50 mM Tris-HCl, 150 mM NaCl, 5 mM EDTA, 1% NP-40, pH 7.4; immunoblot for POU4F1
GST-tagged USP46 (human) = GST-tagged USP46 (human) (UniProt P62068); assay: pull-down; GST or GST fusion on Glutathione Sepharose 4B beads incubated with the His-tagged protein at 4°C for 4 h; washed three times with PBS with 0.1% Triton X-100; western blot with anti-His and anti-GST; both purified

binding [1]: binds
B1: POU4F1 (protein, UniProt Q01851 1-419)
chain: MMSMNSKQPHFAMHPTLPEHKYPSLHSSSEAIRRACLPTPPLQSNLFASLDETLLARAEALAAVDIAVSQGKSHPFKPDATYHTMNSVPCTSTSTVPLAHHHHHHHHHQALEPGDLLDHISSPSLALMAGAGGAGAAAGGGGAHDGPGGGGGPGGGGGPGGGPGGGGGGGPGGGGGGPGGGLLGGSAHPHPHMHSLGHLSHPAAAAAMNMPSGLPHPGLVAAAAHHGAAAAAAAAAAGQVAAASAAAAVVGAAGLASICDSDTDPRELEAFAERFKQRRIKLGVTQADVGSALANLKIPGVGSLSQSTICRFESLTLSHNNMIALKPILQAWLEEAEGAQREKMNKPELFNGGEKKRKRTSIAAPEKRSLEAYFAVQPRPSSEKIAAIAEKLDLKKNVVRVWFCNQRQKQKRMKFSATY

binding (GST-tagged USP46 (human)): binds
B2: His-tagged POU4F1 (protein, UniProt Q01851 1-419)
chain: B1 chain
